# According to US20140086881A1, “GOOD HEALTHY CELLS FOUND IN PROTEINS, THEIR APPLICATIONS, AND PROCESS OF MAKING A MEDIUM TO HARVEST THE CELLS” (priority 2012, published 2014):
# Test system: atherosclerotic model
# Source text: 10 ApoE ko mice were fed with regular chow diet and used as negative control group. 50 ApoE ko mice were fed with high fat diet (35% kcal fat, 1% cholesterol) for 8 weeks, and then the plasma samples were collected for lipid profile measurement before the treatment. 50 ApoE ko mice were assigned into 5 groups based on the fasting overnight plasma TC and HDL level.
# • 23 Dec. 2011: 60 ApoE mice arrived at chempartner and were housed in the animal facility in the building #3 for the acclimation. • 6 Jan. 2012: Measured the body weight for each mouse. 50 mice were fed with high fat diet and 10 mice were fed with normal chow diet. • 2 Mar. 2012: All mice were fasted over night and plasma samples (about 300 ul whole blood) were collected for lipid profile measurement before treatment with RAAS antibody. • 19 Mar. 2012 to 6 Apr. […] 2012: All mice were fasted over night and plasma sample for each mouse (about 300 ul whole blood) was collected for lipid profile measurement after 16 weeks treatment. Blood glucose was also measured for each mouse. • 9 Jul. 2012: The study was terminated after 16 weeks treatment. Measure BW, sacrificed each mouse, dissected the aorta, heart, liver and kidney and fixed them in 4% PFA.
# Antibody products were administrated by intraperitoneal injection every two days (Monday, Wednesday, and Friday). and the positive compound was administered by p.o every day.
# The body weight was weighed weekly during the period of treatment.
# The fasting overnight blood glucose was measured at the end of study by Roche glucometer.
# About 300 ul of blood sample was collected from the orbital vein for each mouse and centrifuged at 7000 rpm for 5 min at 4° C. and the plasma lipid profile was measured by Roche Modular automatic biochemistry analyzer in DaAn Medical Laboratory
# After RAAS antibody products treatment for 16 weeks, all mice were sacrificed. Measured body weight and collected blood sample for each mouse. Weighed liver weight and saved a tiny piece of liver into 4% paraformaldehyde (PFA) fixation solution for further analysis. At same time, take the photos with heart, lung, aortas and two kidneys.
# 1. Sacrificed the mice and dissected the heart, aorta, and arteries under dissecting microscope.
# 4. Stain with freshly prepared Oil Red O working solution 10 min. • 1). Oil red O stock stain: 0.5% powder in isopropanol • 2). Working solution: dilute with distilled water (3:2) and filter with membrane (0.22 um)
# Scanning the glasses slides with the Aperio ScanScope system and analyze with the image proplus software to measure the area of atherosclerotic plaque lession. The results were expressed as the percentage of the total aortic surface area covered by lesions. […]
# The results were expressed as the Mean±SEM and statistically evaluated by student's t-test. […]
smiles,measurement,setting,value
CC(C)c1c(C(=O)Nc2ccccc2)c(-c2ccccc2)c(-c2ccc(F)cc2)n1CC[C@@H](O)C[C@@H](O)CC(=O)O [Atorvastatin],Low Density Lipoprotein (LDL),16 week treatment,significantly decrease low density lipoprotein
same,plasma total cholesterol (TC),16 week treatment,significantly lower total cholesterol level
same,High Density Lipoprotein (HDL),16 weeks treatment,significantly lower high density lipoprotein
same,plasma Triglyceride (TG),16 weeks treatment,no effect
